# PubChem BioAssay (NCATS)
# The shares of active, inactive and inconclusive entries below differ from those in the screen. A potency beside an inconclusive call is a rough fit, not a confirmed value. Activity calls are given as the source filed them. Unless noted, calls follow the shape of the dose curve; as a rule, active = well fitted curve in the direction sought with a large enough effect; inconclusive = small, poorly fitted or top-dose-only effect, or another doubt; inactive = no such curve, though single readings can be large; an effect the other way counts as inactive or inconclusive.
# How the values were obtained:
# [1] = Cytotoxicity counterscreen for NFkB agonists and antagonists (AID 624476); conditions: NFkB reporter cell line viability counterscreen; series mostly up to 46.1 µM;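 also: cells exposed to compound for 48 hours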; also: potency is read from the fitted curve at half-maximal effect
# [2] = qHTS Assay for Identification of Small Molecule Antagonists for NFkB Signaling Pathway. (AID 624479; calls by dose curve; also: potency is read from the fitted curve at half-maximal effect); conditions: NFkB pathway reporter cell assay, antagonist mode; series mostly up to 38.3 µM
# [3] = Cell Proliferation Assay against the TMD8 Cell Line (Caspase readout at 16 hrs) (AID 651712); conditions: TMD8 lymphoma cells, caspase activation luminescence; series mostly up to 46.1 µM; also: potency is read from the fitted curve at half-maximal effect
# How it was run: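 Caspase-Glo luminescence measured apoptosis after a 16 h, 37 C compound exposure of TMD8 cells (500 cells/well, 5% FBS RPMI). DMSO set 0% and bortezomib at 9.2 uM final set 100% activity.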
# [4] = qHTS Assay for Identification of Small Molecule Agonists for NFkB Signaling Pathway. (AID 624478); conditions: NFkB pathway reporter cell assay, agonist mode, cells co-stimulated with 10 pM TNF alpha; series mostly up to 46.1 µM
# How it was run: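 Read-out: 460/530 nm emission at 405 nm excitation after 2 h LiveBLAzer loading; ME-180 NFkB-bla reporter cells exposed 5 h at 37 C to compounds with 10 pM TNF alpha final.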
# [5] = Cell Proliferation Assay against the TMD8 Cell Line (Caspase readout at 8 hrs) (AID 651713); conditions: TMD8 lymphoma cells, caspase activation luminescence; caspase activation: at 46.1 µM (top of the series); also: potency is read from the fitted curve at half-maximal effect
# How it was run: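 Apoptosis readout: caspase 3/7 luminescence (Caspase-Glo), 15 min RT. Cells: TMD8, 500/well, RPMI + 5% FBS, no phenol red. Exposure 8 h, 37C. % activity vs DMSO = 0, bortezomib 9.2 uM final = 100.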
structure (smiles),measurement,setting,value
CS(=O)(=O)Oc1ccc2c(NC(N)=O)c(C(=O)c3ccc(Cl)cc3Cl)oc2c1,Potency,[1],inactive
same,Potency,[2],"inconclusive: 18.8 µM [inhibitor, partial curve]"
O=c1[nH]c(-c2ccc(C(F)(F)F)cc2)nc2c1CSCC2,Potency,[1],inactive
same,Potency,[2],inactive
COc1ccc(OC)c(-c2nnc3ccc(-c4ccc(OC)c(O[C@@H]5CCOC5)c4)nn23)c1,Potency,[1],inactive
same,Potency,[2],"inconclusive: 13.3 µM [inhibitor, partial curve]"
same,Potency,[3],active: 20.9 µM
Cc1[nH]nc2ccc(-c3cncc(OC[C@@H](N)Cc4ccccc4)c3)cc12,Potency,[1],active: 4.69 µM
same,Potency,[2],active: 0.168 µM
CCOC(=O)[C@@H](N)CCC(=O)N[C@@H](CSCc1ccccc1)C(=O)N[C@@H](C(=O)OCC)c1ccccc1,Potency,[4],"inconclusive: 11.8 µM [activator, partial curve, poor fit]"
same,Potency,[2],"inconclusive: 29.8 µM [inhibitor, single point]"
same,Potency,[3],"inconclusive: 23.5 µM [activator, single point]"
same,Potency,[5],"inconclusive: 37.2 µM [activator, single point]"
CCc1cc(-c2n[nH]c(C)c2-c2ccc3c(c2)OCCO3)c(O)cc1O,Potency,[1],"inconclusive: 23.5 µM [inhibitor, single point]"
same,Potency,[3],active: 23.5 µM
Nc1ccc(C(=O)c2cc3c(ccc4ccccc43)[nH]2)cc1,Potency,[1],"inconclusive: 33.2 µM [inhibitor, single point]"
same,Potency,[3],active: 26.4 µM
CCCCOCCOc1nc(-c2ccc(C(=O)O)c(F)c2)sc1C,Potency,[1],inactive
same,Potency,[3],inactive

# Shown bar-delimited: part of the list above.
structure (smiles) | measurement | setting | value
Cc1[nH]nc2ccc(-c3cncc(OC[C@@H](N)Cc4ccccc4)c3)cc12 | Potency | [1] | active: 4.69 µM
CCCCOCCOc1nc(-c2ccc(C(=O)O)c(F)c2)sc1C | Potency | [3] | inactive
